According to publication PMC11923860:
Results are given in words; binding and its absence hold for the method and conditions named. Binding seen in cells or lysates may run through a third protein. A result given as binding can be weak or reduced; the word gives no strength. Sequences can lack the tags named with a protein. Values belong to the molecule of their own block, whether it stands above or below them.

Chains of the proteins cited; added tags and fusions are not shown. Lines headed by an entry give the natural chain unless they say otherwise; changes in a name come on top.
UniProt Q6H8A9: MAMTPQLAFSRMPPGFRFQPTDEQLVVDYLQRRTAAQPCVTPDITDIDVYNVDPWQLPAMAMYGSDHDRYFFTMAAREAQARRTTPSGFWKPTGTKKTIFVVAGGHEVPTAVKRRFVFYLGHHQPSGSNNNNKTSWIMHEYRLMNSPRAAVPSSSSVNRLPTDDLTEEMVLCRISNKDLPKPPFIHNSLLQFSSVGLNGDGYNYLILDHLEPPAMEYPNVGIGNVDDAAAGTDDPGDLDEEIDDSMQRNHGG

Columns and labels:
Assay in all cases: split reporter; BiFC: CDS of bait and prey in pCAMBIA1300-35S-N-YFPC and pCAMBIA1300-35S-N-YFPN; Agrobacterium GV3101 infiltrated into leaf epidermal cells of 3 week old Nicotiana benthamiana; fluorescence seen after 36 h by confocal microscopy
[1] = target: T1, SAPK6 (BiFC fusion) (rice (Oryza sativa L.)) (UniProt Q6ZI44)
T1 sequence: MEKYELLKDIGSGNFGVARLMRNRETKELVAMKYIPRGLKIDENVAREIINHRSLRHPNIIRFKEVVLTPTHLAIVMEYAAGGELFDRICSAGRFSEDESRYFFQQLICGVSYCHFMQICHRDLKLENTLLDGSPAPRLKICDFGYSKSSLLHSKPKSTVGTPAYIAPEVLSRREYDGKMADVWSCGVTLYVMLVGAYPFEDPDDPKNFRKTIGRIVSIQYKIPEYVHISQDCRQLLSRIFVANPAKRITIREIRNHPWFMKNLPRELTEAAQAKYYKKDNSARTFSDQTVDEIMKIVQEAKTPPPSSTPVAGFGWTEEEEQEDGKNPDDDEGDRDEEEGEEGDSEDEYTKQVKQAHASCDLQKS

[2] = target: T2, SAPK8 (BiFC fusion) (rice (Oryza sativa L.)) (UniProt Q7Y0B9)
T2 sequence: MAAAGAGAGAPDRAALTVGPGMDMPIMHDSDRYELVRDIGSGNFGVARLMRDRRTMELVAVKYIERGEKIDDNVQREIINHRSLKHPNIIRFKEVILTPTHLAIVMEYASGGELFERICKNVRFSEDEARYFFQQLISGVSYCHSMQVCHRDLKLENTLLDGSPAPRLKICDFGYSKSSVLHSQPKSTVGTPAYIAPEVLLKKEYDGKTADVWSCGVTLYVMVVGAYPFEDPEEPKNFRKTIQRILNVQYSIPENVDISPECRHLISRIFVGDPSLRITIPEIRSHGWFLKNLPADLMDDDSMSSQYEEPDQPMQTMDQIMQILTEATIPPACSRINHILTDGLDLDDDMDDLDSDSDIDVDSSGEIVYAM

[3] = target: P0524G08.124 (BiFC fusion) (rice (Oryza sativa L.))

binding [1]: binds | binding [2]: binds
Molecule: OsNAC23 (BiFC fusion) (from UniProt Q6H8A9)

binding [3]: binds
B1: bZIP58 (BiFC fusion) (protein, UniProt Q6ZLB0 1-436)
chain: MEHVFAVDEIPDPLWAPPPPVQPAAAAGVDDVGAVSGGGLLERCPSGWNLERFLEELDGVPAPAASPDGAAIYPSPMPAAAAEAAARWSRGYGDREAVGVMPMPAAALPAAPASAAMDPVEYNAMLKRKLDEDLATVAMWRASGAIHSESPLGNKTSLSIVGSILSSQKCIEGNGILVQTKLSPGPNGGSGPYVNQNTDAHAKQATSGSSREPSPSEDDDMEGDAEAMGNMILDEEDKVKKRKESNRESARRSRSRKAARLKDLEEQVSLLRVENSSLLRRLADANQKYSAAAIDNRVLMADIEALRAKVRMAEESVKMVTGARQLHQAIPDMQSPLNVNSDASVPIQNNNPMNYFSNANNAGVNSFMHQVSPAFQIVDSVEKIDPTDPVQLQQQQMASLQHLQNRACGGGASSNEYTAWGSSLMDANELVNMELQ
